Assay results taken from patent publication US20210238253A1 (GUANGDONG ZHAOTAI INVIVO BIOMEDICINE, published 2021).
No constants are given. Whether binding was seen depends on the method and setting. Some results given as binding are weak or reduced against the parent protein; the word gives no strength.

By UniProt entry, the sequences of proteins in these tests, tags left out. Where a name states a change or a piece, a line headed by the entry shows the natural chain unless it says otherwise. Chains listed by the source or under a name are the forms on record and can include a tag or linker. Residues count along the entry.
UniProt P15391: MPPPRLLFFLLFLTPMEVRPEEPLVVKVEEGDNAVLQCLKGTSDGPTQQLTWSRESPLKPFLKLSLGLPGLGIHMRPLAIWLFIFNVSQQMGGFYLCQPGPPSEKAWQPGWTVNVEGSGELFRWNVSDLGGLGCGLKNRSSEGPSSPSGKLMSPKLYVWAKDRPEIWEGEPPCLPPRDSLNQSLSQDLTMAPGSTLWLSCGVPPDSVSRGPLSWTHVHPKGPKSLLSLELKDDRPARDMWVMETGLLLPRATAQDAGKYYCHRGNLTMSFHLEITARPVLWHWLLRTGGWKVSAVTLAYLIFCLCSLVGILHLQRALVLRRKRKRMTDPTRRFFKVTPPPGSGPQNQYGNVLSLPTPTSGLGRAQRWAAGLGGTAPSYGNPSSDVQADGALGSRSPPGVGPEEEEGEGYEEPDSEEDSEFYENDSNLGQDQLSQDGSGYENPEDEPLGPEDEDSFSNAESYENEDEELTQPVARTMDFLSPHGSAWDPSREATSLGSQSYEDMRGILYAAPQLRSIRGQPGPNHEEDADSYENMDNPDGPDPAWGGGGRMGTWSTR
CD19 expressed by Nalm6 cells: residues 20-556 of P15391
hCD19-his (human CD19 recombinant protein, Pro20-Lys291, His tag at C-terminus): residues 20-291 of P15391

Tests used:
[1] = target: CD19 expressed by Nalm6 cells (UniProt P15391); test: flow cytometry on Nalm6 cells
[2] = target: hCD19-his (human CD19 recombinant protein, Pro20-Lys291, His tag at C-terminus) (human) (UniProt P15391); test: ELISA, coated hCD19-His 0.5 µg/ml, antibody 2 µg/ml
[3] = target: hCD19-his (human CD19 recombinant protein, Pro20-Lys291, His tag at C-terminus) (human) (UniProt P15391); test: ELISA, coated hCD19-His

Measured: binding

B1: 11H8 (hybridoma antibody) (antibody, V domains shown)
VH: QVQLVESGGGVVQPGRSLRLSCAASGFTFSRHGMHWVRQAPGKGLEWVAVIWYDGSNQYYVDSVKGRFTISRDNSKNTLDLQMNSLRVEDTAVYYCARRSITWYGGFDIWGQGTMVTVSS
VL: DIQMTQSPSTLSASVGDRVTITCRASQSISSWLAWYQQKPGKAPKLLIYKASSLESGVPPRFSGSGSGTEFTLTISSLQPDDFATYYCQQYNSAYTFGQGTKLEIK
notes: hybridoma mAb from H2L2 mouse (human variable, rat constant regions)
binds: [1] | [2] | [3]
